We go through two sequences from paper PMC2810336.

What all share (experiment): EMSA
A general note: In EMSA bound probe runs differently from free probe, usually more slowly.

Series [1] has as its target phiC31 integrase L143A (Streptomyces phage phiC31) (UniProt Q38194). Particulars: recombinant protein, protein details: C-terminal His, label: biotin, double-strand end-labeled.
The target in series [2] is phiC31 integrase R18A (Streptomyces phage phiC31) (UniProt Q38194). Particulars: recombinant protein, protein details: C-terminal His, label: biotin, double-strand end-labeled.
Series [3] deals with phiC31 integrase I141A (Streptomyces phage phiC31) (UniProt Q38194). To be noted: recombinant protein, protein details: C-terminal His, label: biotin, double-strand end-labeled.
The target in series [4] is phiC31 integrase E153A (Streptomyces phage phiC31) (UniProt Q38194). To be noted: recombinant protein, protein details: C-terminal His, label: biotin, double-strand end-labeled.
The target of series [5] is phiC31 integrase I432A (Streptomyces phage phiC31) (UniProt Q38194). Particulars: recombinant protein, protein details: C-terminal His, label: biotin, double-strand end-labeled.
Series [6] addresses phiC31 integrase C376A/G377A (Streptomyces phage phiC31) (UniProt Q38194). Particulars: complexes I and II, group 2-7 fold decrease; recombinant protein; protein details: C-terminal His; label: biotin, double-strand end-labeled.
Series [7] deals with phiC31 integrase V566A (Streptomyces phage phiC31) (UniProt Q38194). To be noted: complex I, group 2-7 fold decrease; recombinant protein; protein details: C-terminal His; label: biotin, double-strand end-labeled.
In series [8] the target is phiC31 integrase V571A (Streptomyces phage phiC31) (UniProt Q38194). Particulars: complex I, group 2-7 fold decrease; recombinant protein; protein details: C-terminal His; label: biotin, double-strand end-labeled.
The target of series [9] is phiC31 integrase Y393A (Streptomyces phage phiC31) (UniProt Q38194). Particulars: complex I, group 2-7 fold decrease; recombinant protein; protein details: C-terminal His; label: biotin, double-strand end-labeled.
Setting [10] is: 400 nM protein, complexes I and II.
Setting [11] is: 400 nM protein, complexes I, II, III.
Setting [12] is: complexes I, II, III, group 2-7 fold decrease.
Where [13] appears, read: complex II, group 2-7 fold decrease.

The exact form of at least one protein or probe is not confirmed. The comparison behind a weaker result is the experiment's own reference, which may not be listed here. For some assays here: Whether high values mean tight binding is not given here for every scale.

With “CGGGTGCCAGGGCGTGCCCTTGGGCTCCCCGGGCGCGTACT (double strand) [attB 41 bp]”, the binding signal in series [1] (setting [10]) was 38 % of WT; in [2] (setting [10]), 16 % of WT; in series [3] (setting [11]), 54 % of WT; in series [4] (setting [10]), 46 % of WT; in series [5] (setting [11]) it was 61 % of WT.

Turning to “GTAGTGCCCCAACTGGGGTAACCTTTGAGTTCTCTCAGTTGGGGGCGTAG (double strand) [attP 50 bp]”, the binding result in series [1] (setting [12]) is “binds more weakly”; in [2] (setting [12]), “binds more weakly”; in series [3] (complex III, group 2-7 fold decrease), “binds more weakly”; in series [6], “binds more weakly”; in series [4] (setting [13]), “binds more weakly”; in series [7], “binds more weakly”. Besides, the binding result in series [5] (setting [13]), in [8] and in [9] was “binds more weakly” each time.
